Data reported in article PMC6933351.
Results are given in words; binding and its absence hold for the method and conditions named. Binding seen in cells or lysates may run through a third protein. Some entries that bind do so weakly or less than the wild type.

Biological target: T1, Endogenous SIRT1 (mouse (endogenous in MCFs)) (UniProt Q923E4)
T1 sequence: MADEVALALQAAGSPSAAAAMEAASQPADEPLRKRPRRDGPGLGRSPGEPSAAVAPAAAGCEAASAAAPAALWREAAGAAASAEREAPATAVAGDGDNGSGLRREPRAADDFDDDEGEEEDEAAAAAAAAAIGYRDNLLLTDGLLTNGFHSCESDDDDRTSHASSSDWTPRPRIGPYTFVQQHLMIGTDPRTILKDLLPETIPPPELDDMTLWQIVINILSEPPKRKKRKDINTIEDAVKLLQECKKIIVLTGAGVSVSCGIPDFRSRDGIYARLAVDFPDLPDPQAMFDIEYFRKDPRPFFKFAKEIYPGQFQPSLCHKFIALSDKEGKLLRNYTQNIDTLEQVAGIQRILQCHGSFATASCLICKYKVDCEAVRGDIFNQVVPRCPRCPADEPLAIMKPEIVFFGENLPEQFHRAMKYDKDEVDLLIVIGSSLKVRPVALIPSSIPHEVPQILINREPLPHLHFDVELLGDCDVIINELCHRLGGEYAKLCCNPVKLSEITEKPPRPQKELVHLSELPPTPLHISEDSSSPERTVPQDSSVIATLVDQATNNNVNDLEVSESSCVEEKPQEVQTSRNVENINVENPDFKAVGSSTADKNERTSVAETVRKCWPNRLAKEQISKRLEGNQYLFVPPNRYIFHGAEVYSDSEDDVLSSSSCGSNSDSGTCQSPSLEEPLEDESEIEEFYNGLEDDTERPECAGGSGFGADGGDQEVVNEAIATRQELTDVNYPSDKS
Test: co-IP; endogenous proteins in MCFs, precipitated with a SIRT1 antibody, blotted for TRPC3; with or without Hcy stimulation

B1: Endogenous TRPC3 (protein, UniProt Q9QZC1 1-910)
chain: MSTKVKKCREPARVTLPAPEEEEDGEAEGGESQRRRRGWRGVNGGLEPPCPRAPPSPGPDASSEGSPSRWRTAGMRDKGRRQAVRGPAFMFGARGPSLTAEEERFLDAAEYGNIPVVRKMLEESRTLNVNCVDYMGQNALQLAVGNEHLEVTELLLKKENLARIGDALLLAISKGYVRIVEAILGHPGFAASRRLTLSPCEQELRDDDFYAYDEDGTRFSPDITPIILAAHCHKYEVVHLLLLKGARIERPHDYFCRCSDCAEKQRLDAFSHSRSRINAYKGLASPAYLSLSSEDPVLTALELSNELAKLANIEKEFKNDYRKLSMQCKDFVVGVLDLCRDSEEVEAILNGDLESAEPLERHGHKASLSRVKLAIKYEVKKFVAHPNCQQQLLTIWYENLSGLREQTIAIKCLVVLVVALGLPFLAIGYWIAPCSRLGKILRSPFMKFVAHAASFIIFLGLLVFNASDRFEGITTLPNITVIDYPKQIFRVKTTQFTWTEMLIMVWVLGMMWSECKELWLEGPREYIVQLWNVLDFGMLSIFIAAFTARFLAFLQATKAQQYVDSHVQESDLSEVTLPPEVQYFTYARDKWLPSDPQIISEGLYAIAVVLSFSRIAYILPANESFGPLQISLGRTVKDIFKFMVLFIMVFLAFMIGMFILYSYYLGAKVNPAFTTVEESFKTLFWSIFGLSEVTSVVLKYDHKFIENIGYVLYGIYNVTMVVVLLNMLIAMINSSYQEIEDDSDVEWKFARSKLWLSYFDDGKTLPPPFSLVPSPKSFVYFIMRITNFSKCRRRRLQKDLELGMGNSKSRLNLFTQSNSRVFESHSFNSILNQPTRYQQIMKRLIKRYVLKAQVDKENDEVNEGELKEIKQDISSLRYELLEDKSQATEELAILIHKLSEKLNPSVLRCE
binding: binds
